Laboratory results from article PMC6650543.
No constants are given. Whether binding was seen depends on the method and setting. In cells and extracts the contact can be indirect. Some binding calls cover weakened binding; strength is not graded here.

The chains behind the UniProt entries cited, without tags or fusion partners.
UniProt O88275: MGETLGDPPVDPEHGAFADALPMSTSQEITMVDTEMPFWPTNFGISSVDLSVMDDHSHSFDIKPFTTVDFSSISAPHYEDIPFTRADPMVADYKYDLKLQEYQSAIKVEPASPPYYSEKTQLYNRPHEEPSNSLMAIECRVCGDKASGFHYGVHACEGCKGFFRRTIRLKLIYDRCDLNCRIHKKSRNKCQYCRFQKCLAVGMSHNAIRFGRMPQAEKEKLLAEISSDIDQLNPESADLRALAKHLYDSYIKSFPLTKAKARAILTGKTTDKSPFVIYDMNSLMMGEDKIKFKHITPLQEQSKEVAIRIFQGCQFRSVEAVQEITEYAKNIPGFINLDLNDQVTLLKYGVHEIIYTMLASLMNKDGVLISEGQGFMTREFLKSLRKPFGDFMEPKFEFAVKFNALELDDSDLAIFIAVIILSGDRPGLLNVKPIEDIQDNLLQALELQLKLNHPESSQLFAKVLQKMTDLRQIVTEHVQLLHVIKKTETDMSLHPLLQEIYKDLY

Target: peroxisome proliferator-activated receptor γ (rat (endogenous in primary hippocampal neurons)) (UniProt O88275)
Assay: co-IP; lysate of primary rat hippocampal neurons in cold RIPA buffer, pre-cleared with protein A sepharose; anti-PPARγ or anti-CDK5 antibody (1:500) 12 h at 4°C, protein A sepharose beads 4 h, four washes with cold PBS, Western blot for CDK5 or PPARγ; neurons untreated or treated with Aβ1-42 (8 μM), pioglitazone (10 μM) + Aβ1-42, or GW9662 (10 μM) + pioglitazone + Aβ1-42

binding: binds
Substance: cyclin-dependent kinase 5 (from UniProt Q03114 1-292) (enzyme)
